# In PubChem BioAssay AID2685 (National Center for Advancing Translational Sciences (NCATS), 2010):
# This is one part of the list. These are further read-outs of the screen, such as a control signal, another cell line or another target. No call is given for them. Compounds called inactive in the main read-out are mostly missing here. The note in brackets gives the kind of curve behind each potency; many fits are weak.
# Experiment: qHTS Assay for Lipid Storage Modulators in Drosophila S3 Cells;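 for cell number change: cells counted by Cell Tracker Red CMTPX staining in the red channel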
# Conditions: BODIPY lipid droplet fluorescence, 18-24 h; for cell number change: measured here: cell count max response, cells fed with added oleic acid
# How it was run: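 Laser-scanning cytometry quantifies lipid droplet accumulation (500–530 nm total intensity; droplet/cell object ratio) in oleic acid-fed (400 uM added) Drosophila S3 cells treated with a concentration series. 20 uM Triacsin C defined 100% inhibition.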
# [1] = measured here: cell number channel AC50, cells fed with added oleic acid
# [2] = measured here: lipid fluorescence (Fed channel) AC50, cells fed with added oleic acid
smiles,measurement,setting,value
COc1ccccc1OCCCC(=O)Nc1nnc(C2CCCO2)s1 (stereo not given),cell number change,,40.6%
same,AC50,[1],"8200 nM [rising, partial curve, poor fit]"
same,AC50,[2],"5800 nM [rising, single point]"
Cc1ccc(S(=O)(=O)N2CCN(CC(=O)N/N=C\c3ccc(Cl)c([N+](=O)[O-])c3)CC2)cc1,cell number change,,-14.8%
same,AC50,[2],"16400 nM [falling, single point]"
O=C(NCc1ccccn1)C(=O)Nc1nc(-c2ccccc2)cs1,cell number change,,21.7%
same,AC50,[2],"4610 nM [rising, partial curve, poor fit]"
CN1CCN(C(=O)c2ccc3c(c2)N(Cc2ccccc2F)C(=O)c2ccccc2S3=O)CC1 (stereo not given),cell number change,,0.288%
same,AC50,[2],"731 nM [rising, full curve]"
O=C(O)c1ccc([N+](=O)[O-])c(CS(=O)(=O)c2ccccc2)c1,AC50,[2],"731 nM [falling, full curve]"
Cc1ccc(C(=O)N2CC(C)CC(C)C2)cc1S(=O)(=O)N1CCCCC1 (stereo not given),cell number change,,-10.9%
same,AC50,[1],"2310 nM [falling, single point]"
c1ccc(CCSc2ncnc3nc[nH]c23)cc1,cell number change,,0.326%
same,AC50,[2],"2060 nM [rising, single point]"
Cc1ccc(F)cc1NC(=O)COC(=O)c1ccc2ncsc2c1,cell number change,,-21.9%
same,AC50,[2],"6510 nM [rising, partial curve, poor fit]"
O=C(NCc1ccco1)c1cc2nc(C3CC3)cc(C(F)(F)F)n2n1,cell number change,,31.6%
same,AC50,[1],"18400 nM [rising, single point]"
same,AC50,[2],"146 nM [rising, full curve, poor fit]"
CCCC(C)NC(=O)c1sc2nc3n(c(=O)c2c1C)CCC3 (stereo not given),cell number change,,-23.4%
same,AC50,[1],"1840 nM [falling, partial curve]"
same,AC50,[2],"1840 nM [falling, full curve]"
CCOC(=O)C(/C=C(\C#N)C(=O)OCC)=C(/N)N1CCN(c2ccc(OC)cc2)CC1,cell number change,,0.702%
same,AC50,[2],"25900 nM [rising, partial curve]"
OC(c1ccccc1)(c1ccccc1)c1ccn[nH]1,cell number change,,-4.95%
same,AC50,[1],"1160 nM [falling, full curve, poor fit]"
same,AC50,[2],"920 nM [falling, full curve, poor fit]"
Cc1cc(C)n(-c2nc(NCCN(C)C)c3c4c(sc3n2)CCCC4)n1,cell number change,,-32.4%
same,AC50,[2],"4.11 nM [falling, full curve, poor fit]"
CCN(CC(=O)Nc1ccc(NC(C)=O)cc1)C(=O)CCCOc1cccc(C)c1,cell number change,,-5.86%
COc1ccc(-n2c(SCC(=O)N3CCCC3)nc3ccccc3c2=O)cc1,cell number change,,-10.3%
same,AC50,[2],"411 nM [falling, partial curve, poor fit]"
C/C(=N\NC(=O)c1ccccc1F)c1cccc(NC(=O)c2ccc(C)cc2)c1,cell number change,,-6.93%
same,AC50,[2],"4.11 nM [falling, full curve, poor fit]"
CCN(CC1CCCO1)C(=O)CCc1nnc(CCc2ccccc2OC)o1 (stereo not given),cell number change,,13.5%
same,AC50,[2],"25900 nM [rising, partial curve]"
CCn1cc(C(=O)NCCC(C)C)c(=O)c2cc(S(=O)(=O)N3CCCCC3)ccc21,cell number change,,28.6%
same,AC50,[2],"6510 nM [falling, single point]"
CN(Cc1c(F)cccc1Cl)C(=O)c1ccc(NC(=O)CC2SC(N3CCCC3)=NC2=O)cc1 (stereo not given),AC50,[1],"2910 nM [rising, partial curve]"
CS(=O)(=O)c1cc([N+](=O)[O-])c(Sc2nc3ccccc3[nH]2)c([N+](=O)[O-])c1,cell number change,,-91%
same,AC50,[1],"8200 nM [falling, partial curve]"
same,AC50,[2],"29100 nM [falling, single point]"
COc1ccc(N2CCN(C(=O)CNS(=O)(=O)c3ccc(C)c(C)c3)CC2)cc1,cell number change,,16.5%
same,AC50,[1],"5800 nM [rising, single point]"
same,AC50,[2],"116 nM [rising, full curve, poor fit]"
COc1ccc(C)cc1NC(=O)CSc1ccc(-c2sc(C)nc2C)nn1,cell number change,,-48.1%
same,AC50,[1],"9200 nM [falling, partial curve]"
O=C(Cn1c(=O)n(CCc2c[nH]c3ccccc23)c(=O)c2cccnc21)Nc1ccccc1F,cell number change,,12%
same,AC50,[2],"259 nM [rising, partial curve]"
OC1CCC(NC(=S)Nc2ccc(SC(F)F)cc2)CC1 (stereo not given),cell number change,,-3.06%
same,AC50,[1],"4.61 nM [falling, full curve, poor fit]"
same,AC50,[2],"65.1 nM [falling, full curve, poor fit]"
Cc1cccc(-n2nc3c([n+]2[O-])CCc2nonc2-3)c1C,cell number change,,-4.78%
same,AC50,[2],"5.17 nM [falling, full curve, poor fit]"
O=C(Nc1ccccc1Cl)c1sccc1-c1ccccc1,cell number change,,-1.8%
same,AC50,[2],"580 nM [falling, single point]"
CC1=NN(C(N)=S)C(=O)C1N=Nc1ccccc1Cl (stereo not given),AC50,[2],"29100 nM [falling, single point]"
O=C(Nc1ccccc1)N1CCCC(c2nc(-c3cccs3)no2)C1 (stereo not given),cell number change,,64.2%
same,AC50,[1],"29100 nM [rising, single point]"
same,AC50,[2],"517 nM [rising, partial curve, poor fit]"
COCC(=O)N(Cc1cc2cccc(C)c2[nH]c1=O)c1ccccc1,cell number change,,9.12%
O=C(Nc1nc(-c2ccc(F)c(F)c2)cs1)C1=COCCO1,cell number change,,-13.7%
same,AC50,[2],"11600 nM [falling, partial curve]"
CCOc1ccc(NC(=O)COc2ccc(C(=O)NCC3CCCO3)cc2OC)cc1 (stereo not given),cell number change,,18.2%
same,AC50,[2],"184 nM [rising, full curve, poor fit]"
CCC(=O)Nc1ccc(Cl)c(-c2nc3ncccc3o2)c1,cell number change,,4.99%
CCCCN(C(=O)c1ccc(NC2CC2)c([N+](=O)[O-])c1)c1c(N)n(CC(C)C)c(=O)[nH]c1=O,cell number change,,9.43%
same,AC50,[1],"103 nM [falling, full curve, poor fit]"
COC(=O)CSc1nnc(-c2ccoc2C)n1-c1ccc(C)cc1,cell number change,,8.53%
same,AC50,[2],"4110 nM [falling, full curve, poor fit]"
Cc1ccc2nc3c(cc2c1)CN(Cc1ccco1)C(=NCC1CCCO1)S3 (stereo not given),cell number change,,84%
same,AC50,[1],"7310 nM [rising, partial curve]"
COc1ccc(NC(=O)CN(C)CC(=O)NC2CCC(C)CC2)cc1 (stereo not given),cell number change,,-9.65%
same,AC50,[2],"82 nM [falling, full curve, poor fit]"
CCOC(=O)Nc1ccc2c(c1)N(C(=O)CCCl)c1ccccc1[S@]2=O,cell number change,,-31.4%
same,AC50,[1],"14600 nM [falling, single point]"
COc1ccc(CCNC(=O)C(=O)NCCC2CCCCN2S(=O)(=O)c2cccs2)cc1 (stereo not given),cell number change,,-6.39%
CCN(CC)C(=O)CSc1nnc(-c2cc(-c3ccc(Cl)cc3)nc3ccccc23)o1,cell number change,,27.8%
same,AC50,[1],"411 nM [rising, full curve, poor fit]"
same,AC50,[2],"651 nM [rising, single point]"
CN(C)S(=O)(=O)N1CCN(Cc2ccccc2)CC1,cell number change,,-17.8%
same,AC50,[1],"1840 nM [falling, partial curve, poor fit]"
CC(=O)c1ccc(NC(=O)NC2CCCCCCC2)cc1,cell number change,,1.73%
CN1CCN(C(=O)c2ccc(CNS(=O)(=O)c3cccc(Cl)c3)cc2)CC1,cell number change,,-4.05%
same,AC50,[2],"731 nM [falling, single point]"
CC#CC(=O)N1CCC(C(=O)Nc2ccc(Oc3ccccc3)nc2)CC1,cell number change,,-0.463%
CC(CN1CCOCC1)OC(=O)c1ccc(C(C)(C)C)cc1 (stereo not given),cell number change,,-47.8%
same,AC50,[1],"14600 nM [falling, partial curve, poor fit]"
same,AC50,[2],"580 nM [rising, single point]"
O=C(c1cc2cc(C(F)(F)F)ccc2s1)N1CCOCC1,cell number change,,6.52%
Cc1ccc(S(=O)(=O)NCCCCCC(=O)NC(C)(C)CO)cc1,cell number change,,-0.482%
same,AC50,[1],"206 nM [falling, full curve, poor fit]"
Cc1nc(CNC(=O)c2cc(COc3c(F)cccc3F)on2)cs1,cell number change,,21.3%
same,AC50,[2],"1030 nM [rising, full curve]"
COC(=O)c1cc2c(-c3ccccc3)cc3ccccn3c-2c1C(=O)OC,cell number change,,-24.5%
same,AC50,[1],"206 nM [rising, partial curve]"
same,AC50,[2],"29100 nM [falling, single point]"
CC(C)NS(=O)(=O)c1ccc(OCC(=O)NCc2ccccc2)cc1,cell number change,,9.63%
same,AC50,[1],"5.8 nM [falling, full curve, poor fit]"
same,AC50,[2],"5800 nM [falling, single point]"
COc1ccccc1C(=O)NCC(=O)N/N=C/c1cn[nH]c1-c1ccccc1,cell number change,,-4.1%
same,AC50,[1],"1840 nM [rising, single point]"
CCOC(=O)Cn1c(=O)oc2cc(S(=O)(=O)N(C)Cc3ccco3)ccc21,cell number change,,-31.3%
same,AC50,[1],"1640 nM [falling, partial curve, poor fit]"
O=C(/C=C/c1cccc([N+](=O)[O-])c1)n1cnc2ccccc21,cell number change,,19.7%
O=S(=O)(Nc1nc2ccccc2nc1Cl)c1ccccc1C(F)(F)F,cell number change,,17.6%
same,AC50,[2],"29100 nM [rising, single point]"
O=C(NCC(c1cccnc1)N1CCN(c2ccc(F)cc2)CC1)c1ccc(F)cc1 (stereo not given),AC50,[1],"130 nM [rising, full curve, poor fit]"
same,AC50,[2],"146 nM [rising, full curve, poor fit]"
Cc1ccc2sc(C)[n+](CCCS(=O)(=O)[O-])c2c1,cell number change,,-50%
same,AC50,[1],"29100 nM [falling, single point]"
CCOC(=O)CSc1nnc(NC(=O)CCc2ccccc2)s1,cell number change,,-2.97%
same,AC50,[2],"18400 nM [rising, single point]"
Fc1ccc(C2CC(c3ccc(F)cc3)n3ncnc3N2)cc1 (stereo not given),cell number change,,6.38%
same,AC50,[2],"291 nM [rising, full curve, poor fit]"

# An excerpt of these results, bar-delimited.
smiles | measurement | setting | value
COc1ccc(C)cc1NC(=O)CSc1ccc(-c2sc(C)nc2C)nn1 | cell number change |  | -48.1%
same | AC50 | [1] | 9200 nM [falling, partial curve]
O=C(Cn1c(=O)n(CCc2c[nH]c3ccccc23)c(=O)c2cccnc21)Nc1ccccc1F | cell number change |  | 12%
same | AC50 | [2] | 259 nM [rising, partial curve]
OC1CCC(NC(=S)Nc2ccc(SC(F)F)cc2)CC1 (stereo not given) | cell number change |  | -3.06%
same | AC50 | [1] | 4.61 nM [falling, full curve, poor fit]
same | AC50 | [2] | 65.1 nM [falling, full curve, poor fit]
